From the supplement of paper PMC12889115
The list shows a part of the results. Values are raw readings; no control value is given beside them.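 First-pass screen: polymyxin B was added at a level that permeabilizes the Salmonella outer membrane while sparing the inner membrane. DMSO wells, with and without polymyxin B, defined maximum growth. Because plates differed from one another, each plate's data were ranked separately and the compounds with the lowest OD600 were carried forward as hits.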

Tested on: Salmonella enterica serovar Typhimurium SL1344
Assay: bacterial growth OD600 after 18 h with compound and polymyxin B; higher = more bacterial growth (less inhibition)
Details: 50 µM, Mueller-Hinton broth

| Structure (SMILES) | bacterial growth OD600 (polymyxin B 0.75 µg/mL) | bacterial growth OD600 (polymyxin B 1 µg/mL) |
| --- | --- | --- |
| COc1ccc(CC2(CCC(=O)NCc3nccs3)CCC(=O)N2)c2ccccc12 (stereo not drawn) | 0.822 |  |
| CC(Cc1cccnc1)NC(=O)c1cc(COc2ccc(F)cc2F)on1 (stereo not drawn) |  | 0.89 |
| CCCCNCc1ccccc1OCC(O)CN1CCc2ccccc2C1 (stereo not drawn) | 0.79 |  |
| COC(CNc1nc2nonc2nc1N1CCOCC1)c1cccs1 (stereo not drawn) |  | 0.935 |
| Cc1cccnc1-c1cccc2c1OC(CNC(=O)CC1CC1)C2 (stereo not drawn) | 0.839 |  |
| Cn1c(CNc2nncc(-c3cccc(Cl)c3)n2)nc2ccccc21 | 0.006 |  |
| COc1ccccc1OCC(=O)N1CCc2c(cnc(C)c2CNC(=O)Cc2ccsc2)C1 | 0.945 |  |
| COc1cc(CN2CCN(Cc3cccc4nonc34)CC2CCO)cc(OC)c1 (stereo not drawn) |  | 0.97 |
| CCc1ccc(CN(C)C(=O)C2CCC(=O)N(Cc3cccc(OC)c3)C2)nc1 (stereo not drawn) |  | 0.815 |
| COc1ccc(CNC2CCCc3c2cnn3-c2ccccn2)c(C)c1C (stereo not drawn) | 0.758 |  |
| CCC(COC)NC(=O)c1sc2ncnc(N3CCCCCCC3)c2c1C (stereo not drawn) | 0.759 |  |
| CCCc1ncc(CN2CCC(C3CCN(c4ncccn4)CC3)C2)cn1 (stereo not drawn) | 0.792 |  |
| COc1ccc(F)c(CN2CCCC3(CCN(c4cc(OC)ncn4)C3)C2=O)c1 (stereo not drawn) |  | 0.885 |
| COc1ccc(C(CC(=O)N(C)Cc2cn(C)nc2C)c2ccccc2)cc1 (stereo not drawn) |  | 0.787 |
| CCOc1cc(CN2CCN(Cc3ccc(OC)c(C)c3C)C(CCO)C2)ccc1O (stereo not drawn) |  | 0.951 |
| CN(Cc1ccn[nH]1)C(=O)c1ccc2oc(-c3cccc(F)c3)nc2c1 | 0.037 |  |
| COc1ccc(CCC2CCCN(C(=O)CCSC)C2)cc1 (stereo not drawn) | 0.519 |  |

No new results follow: two of the compounds above.

| Structure (SMILES) | bacterial growth OD600 (polymyxin B 0.75 µg/mL) | bacterial growth OD600 (polymyxin B 1 µg/mL) |
| --- | --- | --- |
| COc1ccc(CNC2CCCc3c2cnn3-c2ccccn2)c(C)c1C (stereo not drawn) | 0.758 |  |
| CCC(COC)NC(=O)c1sc2ncnc(N3CCCCCCC3)c2c1C (stereo not drawn) | 0.759 |  |

(continued)

| Structure (SMILES) | bacterial growth OD600 (polymyxin B 0.75 µg/mL) | bacterial growth OD600 (polymyxin B 1 µg/mL) |
| --- | --- | --- |
| COCCCNc1ncnc2sc(C(=O)N(C)CC(C)C)c(C)c12 | 0.838 |  |
| CCC(NC(=O)CCc1nnc(Cc2cc(OC)ccc2OC)o1)c1ccc(F)cc1 (stereo not drawn) |  | 0.705 |
| O=C(CC1CC1)N1CCCC(CCc2ccccc2)C1 (stereo not drawn) | 0.64 |  |
| Cc1c(C(C)NC2CCN(Cc3ccccn3)CC2)cnn1-c1ccc(F)cc1F (stereo not drawn) |  | 0.928 |
| COc1cccc(OC)c1-c1cnnc(NCc2cccc(C(F)(F)F)c2)n1 |  | 0.009 |
| COc1cc(=O)n2c(c1C(=O)NCc1ccc3c(c1)OCO3)CCN(C(=O)c1ccccc1C)CC2 | 0.835 |  |
| Fc1cccc(-c2noc3c2CN(Cc2cccn2-c2ccccn2)CC3)c1 | 0.553 |  |
| CC(C)(C)c1ccc(-n2ncc3c2CCCC3NC(=O)CCn2cnnn2)cc1 (stereo not drawn) |  | 0.816 |
| Cc1nc(C)c(C(=O)N2CCC3(CC2)CC3C(=O)NCC2(c3ccccc3)CCOCC2)s1 (stereo not drawn) | 0.91 |  |
| CCOC(=O)C1(Cc2ccc(OC)cc2)CCN(C(=O)C(C)Oc2ccccc2)CC1 (stereo not drawn) | 0.192 |  |
| Fc1ccc(Cc2noc(-c3ccc(N4CCCCO4)nc3)n2)cc1 | 0.58 |  |
| COc1cccc(C2c3[nH]c4ccccc4c3CCN2Cc2ccco2)c1OC (stereo not drawn) |  | 0.008 |
| CN(CC(O)c1ccccc1)C(=O)c1cc(NS(C)(=O)=O)cc2ncn(CCc3ccccc3)c12 (stereo not drawn) | 0.791 |  |
| Clc1ccc2nc(CN3CCCC(N4CCOCC4)C3)ccc2c1 (stereo not drawn) |  | 1.11 |
| COc1ccc(CCN2CCCC(CN(C)Cc3ccc(OC)cc3F)C2)cc1 (stereo not drawn) | 0.684 |  |
| COc1cccc(CCC2CCCN(Cc3nccn3C)C2)c1 (stereo not drawn) | 0.895 |  |
